Results on 58 molecules are retold here after PubChem BioAssay AID2685 (National Center for Advancing Translational Sciences (NCATS), 2010).

Molecules are shown by their SMILES. Some of the results follow. Further columns of the screen follow, without active or inactive calls. Most of these compounds were active or inconclusive in the main read-out, so they are no random draw. Words in brackets tell the shape of the fitted curve; partial curves, single points and poor fits give uncertain potencies.

This test can be described thus: qHTS Assay for Lipid Storage Modulators in Drosophila S3 Cells.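 As to cell number change: cells counted by Cell Tracker Red CMTPX staining in the red channel.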 To be noted: BODIPY lipid droplet fluorescence, 18-24 h; for cell number change: measured here: cell count max response, cells fed with added oleic acid. The procedure, abridged:
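Drosophila S3 cells got compounds at several concentrations plus oleic acid (400 uM solution). Laser-scanning cytometry with 488 nm excitation read lipid droplets at 500-530 nm and cells at 575-640 nm. Percent activity was relative to 20 uM Triacsin C.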
(qHTS replaces the single test concentration by a dilution series.)

[1] abbreviates: measured here: cell number channel AC50, cells fed with added oleic acid.
Setting [2] is: measured here: lipid fluorescence (Fed channel) AC50, cells fed with added oleic acid.

A word on the AC50: it is the concentration at which the activity in the assay is half-maximal. A higher AC50 goes with weaker potency.

Regarding `O=C(NCCc1cccc(F)c1)C1CCN(S(=O)(=O)c2ccccc2)CC1`, the cell number change was determined as 47.2%. Moreover, under setting [1], the AC50 was 29.1 µM [rising, single point].

In the case of `COc1ccccc1N1CCN(C(=O)CSc2nc3ccccc3nc2N2CCCCC2)CC1`, the cell number change was -12.7%. Besides, the AC50 under setting [2] is 32.6 µM [falling, single point].

On to `O=c1c2ccccc2cnn1Cc1n[nH]c(=S)n1-c1ccc(Cl)cc1`, for which the cell number change was -18.8%. In addition, the AC50 under setting [1] was 3.26 µM [falling, single point].

Consider `Cn1c(NC(=O)/C=C/c2ccc(Cl)c(Cl)c2)cc(=O)n(C)c1=O`, for which the cell number change came out at 118%. Moreover, the AC50 under setting [1] is 0.651 µM [rising, full curve]. In addition, the AC50 under setting [2] was 14.6 µM [rising, partial curve, poor fit].

Consider `COc1cc(C(=O)Nc2cccnc2)cc(OC)c1OC`, for which the cell number change is 15%. Also, under setting [2], the AC50 is 29.1 µM [rising, single point].

Regarding `NS(=O)(=O)c1ccc(CCNC(=O)CCC(=O)c2cccs2)cc1`, the cell number change is -1.24%. For the same molecule, the AC50 under setting [2] is 6.51 µM [rising, partial curve, poor fit].

With `CCN(Cc1ccccc1)S(=O)(=O)c1ccc(C(=O)N(CCCN(C)C)c2nc3c(F)cccc3s2)cc1`, the cell number change came to 10.3%. The AC50 under setting [1] was 0.00411 µM [rising, full curve, poor fit].

In the case of `COc1ccc(CN=CC2=C(O)CC(C)(C)CC2=O)cc1`, the cell number change is -60.8%. Under setting [1], the AC50 is 29.1 µM [falling, single point].

Regarding `CC(=O)N1c2ccc(S(=O)(=O)NCCc3ccc(Cl)cc3)cc2CC1C` (configuration not stated), the AC50 under setting [2] was 20.6 µM [falling, partial curve].

On to `COc1ccc(NC(C#N)c2ccc(OC)cc2)cc1` (configuration not stated), for which the cell number change is 6.01%. Further, the AC50 under setting [2] was 29.1 µM [rising, single point].

In the case of `O=[N+]([O-])c1ccccc1Nc1ccc(O)cc1`, the cell number change is -30.8%. Moreover, under setting [1], the AC50 was 23.1 µM [falling, single point]. The AC50 under setting [2] was 25.9 µM [falling, single point].

With `O=C(c1ccco1)N1CCN(C2CC(=O)N(c3ccc4c(c3)OCO4)C2=O)CC1` (configuration not stated), the AC50 under setting [2] was 1.64 µM [falling, partial curve].

On to `CS(=O)(=O)NCc1ccc(C(=O)O)cc1`, for which the cell number change is -12.2%. Further, the AC50 under setting [2] is 0.058 µM [falling, full curve, poor fit].

Take `Cc1ccc2cc(C#N)c(N3CCCN(C(=O)C4CCCO4)CC3)nc2c1C` (configuration not stated): the cell number change was determined as 15.7%. Besides, the AC50 under setting [2] was 1.84 µM [falling, partial curve, poor fit].

With `Cc1ccc(C(=O)CSc2nc3ccc(C(=O)NCCN4CCCCC4)cc3c(=O)[nH]2)cc1`, the cell number change worked out at 14.3%. In addition, the AC50 under setting [2] is 29.1 µM [rising, single point].

In the case of `CCOC(=O)CSc1nnc(CCc2nc3ccccc3[nH]2)n1C`, the cell number change was -12.4%.

As to `CC(C(=O)c1ccc(-c2ccccc2)cc1)[n+]1cccc(Br)c1` (configuration not stated), the cell number change is -3.55%.

With `CCOC(=O)c1cccc(-n2c(C)nc3ccccc3c2=O)c1`, the cell number change was -29.8%. Moreover, the AC50 under setting [2] was 16.4 µM [falling, single point].

As for `Cc1ccc2cccc(Oc3ccc([N+](=O)[O-])cc3[N+](=O)[O-])c2n1`, the cell number change was -46.5%. The AC50 under setting [1] is 6.51 µM [falling, partial curve, poor fit]. Besides, the AC50 under setting [2] is 18.4 µM [falling, partial curve].

For the molecule `O=C(CSc1ccc2ccccc2n1)Nc1ccc(N2CCOCC2)cc1`, the AC50 under setting [2] was 0.13 µM [falling, full curve, poor fit].

As for `O=C(O)C1CCCN(C(=O)c2cccc3ccccc23)C1` (configuration not stated), the cell number change was 27.5%.

Take `CCOc1ccc(N2CC(C(=O)N/N=C/c3sccc3C)CC2=O)cc1` (configuration not stated): the cell number change was 0.599%. Besides, under setting [2], the AC50 is 13 µM [rising, partial curve].

On to `CC(C)N(C(=O)Cc1ccccc1[N+](=O)[O-])C(C)C`, for which the cell number change amounted to 6.6%. The AC50 under setting [2] was 29.1 µM [falling, single point].

For the molecule `CSc1nnc(-c2cccc(C)c2)n1N`, the cell number change is 32.4%. Besides, under setting [1], the AC50 was 10.3 µM [rising, partial curve, poor fit].

Regarding `CCCCN(C)C1CCN(C(=S)Nc2ccc(OC)cc2)CC1`, the AC50 under setting [2] was 4.11 µM [falling, single point].

In the case of `COc1cc(-c2nnc(-c3ccc(S(=O)(=O)c4ccccc4)cc3)o2)cc(OC)c1OC`, the cell number change turned out to be 67.6%. Further, the AC50 under setting [1] is 5.8 µM [rising, partial curve]. For the same molecule, the AC50 under setting [2] is 6.51 µM [rising, full curve, poor fit].

For the molecule `CN1CCCCc2c1nc1c(c2N)CCCC1`, the cell number change came out at 3.96%. The AC50 under setting [2] was 0.0184 µM [falling, full curve, poor fit].

Take `CC(=O)N(C)C1(c2nnnn2CCOC(=O)Nc2ccc(Cl)cc2)CCCCC1`: the cell number change was 79.9%. The AC50 under setting [1] was 16.4 µM [rising, single point]. The AC50 under setting [2] is 6.51 µM [rising, single point].

In the case of `CC1=C(C(=O)OC2CCCCC2)C(c2ccccc2Br)NC(=O)N1` (configuration not stated), the cell number change is -19.4%. The AC50 under setting [2] is 10.3 µM [falling, single point].

Turning to `Cn1c(=O)oc2cc(S(=O)(=O)NCCC(=O)NCCc3ccc(Cl)cc3)ccc21`, the cell number change stood at 259%. Besides, the AC50 under setting [1] is 20.6 µM [rising, single point]. Under setting [2], the AC50 was 20.6 µM [rising, partial curve].

With `Cc1cc(NCCCN2CCOCC2)n2ncc(-c3ccc(Cl)cc3)c2n1`, the cell number change came out at 1.1%.

Take `CCC(=O)c1c(NCCc2ccccc2)cc(C)oc1=O`: the cell number change was -20.1%. Also, under setting [1], the AC50 was 0.00517 µM [falling, full curve, poor fit]. For the same molecule, the AC50 under setting [2] was 1.46 µM [falling, partial curve].

`Cc1cc(C)n(-c2nnc(NC34CC5CC(CC(C5)C3)C4)nn2)n1`: the cell number change is -84.6%. Further, the AC50 under setting [1] is 20.6 µM [falling, partial curve]. For the same molecule, under setting [2], the AC50 was 4.61 µM [falling, full curve].

With `CCN(CC(=O)Nc1ccccc1C(F)(F)F)C(=O)C1=COCCO1`, the cell number change was -33.3%. Under setting [1], the half-maximal activity concentration (AC50) is 0.731 µM [falling, full curve, poor fit].

As to `COC(=O)c1cn(C(C)C(=O)NCc2ccco2)c2ccccc12` (configuration not stated), the cell number change worked out at 11.9%.

For the molecule `CCOC(=O)c1cc(-c2ccc(OC)cc2)nc2c1c(C)nn2CCC#N`, the cell number change was -0.402%. Further, the AC50 under setting [1] was 1.3 µM [rising, full curve, poor fit].

For the molecule `COc1ccc(-c2nnc3n(CCc4ccccc4)c(=O)c4ccccc4n23)cc1OC`, the cell number change was 34.4%. Moreover, under setting [1], the AC50 was 29.1 µM [rising, single point]. Besides, the AC50 under setting [2] is 29.1 µM [rising, single point].

On to `CC(C)OC(=O)CSc1nnc(-c2cccnc2)n1Cc1ccccc1`, for which the cell number change amounted to 110%. The AC50 under setting [1] is 3.26 µM [rising, full curve]. Under setting [2], the AC50 was 4.61 µM [rising, partial curve].

With `C/C(=N\NC(=O)c1nn(C)cc1Br)c1cccc(NC(=O)C(C)(C)C)c1`, the cell number change is -13.2%.

Turning to `O=C(C/C=N/OCc1c(Cl)cccc1Cl)c1ccccc1`, the cell number change amounted to 17.7%. Moreover, the AC50 under setting [1] is 3.26 µM [rising, single point].

With `CNC(=S)N1CCN(c2nc(-c3ccc(Cl)cc3)cs2)CC1`, the cell number change was -0.777%. Also, the AC50 under setting [2] is 1.3 µM [falling, full curve].

As for `CCOc1ccc(CN(C)C(=O)CNC(=O)c2ccc3ccccc3c2)cc1OC`, the cell number change is -2.02%. In addition, the AC50 under setting [2] was 0.58 µM [rising, single point].

With `Cc1noc(C)c1COC(=O)C1CCN(S(=O)(=O)c2ccc(F)cc2)CC1`, the cell number change came to 9.68%. Further, the AC50 under setting [2] is 6.51 µM [rising, single point].

As to `Clc1ccc(OCCCc2nc(-c3ccncc3)no2)c(Cl)c1`, the cell number change was -17.7%.

In the case of `COc1ccc2c(c1)OC[C@H]1[C@H]2N2C(=O)CN(C)C(=O)[C@@]2(C)[C@H]1c1ccccc1`, the cell number change was -9.83%. The AC50 under setting [2] was 0.00461 µM [rising, full curve, poor fit].

Turning to `Cc1nnc(SCC(=O)NC2CCCCC2)s1`, the cell number change was -19.3%. In addition, the AC50 under setting [1] is 3.26 µM [falling, full curve, poor fit]. Moreover, the AC50 under setting [2] is 29.1 µM [falling, single point].

Regarding `Cn1c(=S)c2[nH]c(SCCN3CCCC3)nc2n(C)c1=O`, the cell number change was found to be 24.6%.

For `O=C(Nc1ccc(Cl)cc1)/C(=C/c1cccc(O)c1)c1nc2ccccc2s1`, the cell number change is -28.6%. The AC50 under setting [2] was 4.11 µM [falling, partial curve, poor fit].

Take `COc1cccc(OC)c1C(=O)NC(=O)Oc1c(F)cccc1F`: the cell number change is 23.5%. Under setting [2], the AC50 is 29.1 µM [rising, single point].

Turning to `Cc1ccc(NC(=O)C(c2ccc(Cl)cc2)N2CCOCC2)cc1` (configuration not stated), the cell number change came out at 6.5%. Moreover, under setting [1], the AC50 is 0.651 µM [falling, single point]. Further, under setting [2], the AC50 is 0.651 µM [falling, single point].

On to `CS(=O)(=O)N(CC(=O)N1CCN(Cc2ccccc2)CC1)c1ccc(F)cc1`, for which the cell number change came out at 16%. In addition, the concentration at half-maximal activity (AC50) under setting [2] was 0.411 µM [rising, partial curve, poor fit].

For `CC(=O)N(C)c1ccc(NC(=O)Nc2ccccc2C)cc1`, the cell number change turned out to be 4.52%. In addition, the AC50 under setting [2] was 6.51 µM [rising, partial curve, poor fit].

In the case of `CCn1c(SCC(=O)Nc2ccc(F)cc2F)nc2c(c1=O)SCC2`, the cell number change came out at 25.5%. Also, the AC50 under setting [1] was 0.00651 µM [rising, full curve, poor fit]. Besides, the AC50 under setting [2] is 29.1 µM [rising, single point].

Regarding `CC(=O)Oc1ccc(N2C(=O)c3cccc4c([N+](=O)[O-])ccc(c34)C2=O)cc1`, the cell number change is -12.6%. Besides, the AC50 under setting [2] was 13 µM [falling, partial curve, poor fit].

With `CCc1c(O)nc(SCC(=O)Nc2nc3ccccc3s2)n(-c2ccc(C)cc2)c1=O`, the cell number change is -1.69%. In addition, the AC50 under setting [2] was 6.51 µM [falling, single point].

Take `O=C(Cn1c2ccccc2c(=O)c2ccccc21)N/N=C/c1ccc(N2CCCC2)c([N+](=O)[O-])c1`: the cell number change is -25.7%. In addition, under setting [2], the AC50 is 29.1 µM [falling, single point].

As to `COc1ccc(CCNC(=O)CNCC2CCCO2)cc1OC` (configuration not stated), the cell number change amounted to 47.6%. Moreover, the AC50 under setting [1] is 14.6 µM [rising, partial curve].

Regarding `O=C1c2ccccc2C(=O)N1CCC(c1ccccc1)c1ccco1` (configuration not stated), the cell number change was found to be 55.2%. Moreover, the AC50 under setting [1] is 29.1 µM [rising, single point].
